Source: PubChem BioAssay AID686943 (Drosophila RNAi Screening Center, 2013)
Test: 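Knockdowns that increase or decrease active ERK after insulin receptor stimulation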 (primary screen). System: Drosophila S2R+ haemocyte-like cells expressing YFP-tagged ERK (Rolled). Reagent: long dsRNA against Drosophila genes. Conditions: insulin stimulation versus unstimulated cells; dose and duration not given. Measurement: 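Antibody staining for doubly phosphorylated ERK divided by ERK-YFP signal, as plate z-scores, in insulin-treated and untreated cells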. Reading the numbers: replicate 1, z-score of dpERK with insulin and replicate 2, z-score of dpERK with insulin: higher = more active ERK per ERK-YFP after insulin; replicate 1, z-score of dpERK under basal conditions: higher = more basal active ERK per ERK-YFP; replicate 1, z-score of ERK-YFP with insulin: higher = more YFP-tagged ERK signal.
In all, the deposit lists about 23,000 reagents; shown is an unselected part of those that have a named target and a result. 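Extra replicates exist only for a retested subset of genes; insulin dose and duration not given; both raised and lowered dpERK matter.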 A plus sign joins genes that one reagent is predicted to hit. Not stated in the record: the amount of reagent, the time to read-out.

The opening 3 records, ahead of the listing:
| gene | amplicon | replicate 1, z-score of dpERK with insulin | replicate 2, z-score of dpERK with insulin | replicate 1, z-score of dpERK under basal conditions | replicate 1, z-score of ERK-YFP with insulin |
| --- | --- | --- | --- | --- | --- |
| Hakai (GeneID 35256) | DRSC02031 | -0.34 | 0.4 | 0.94 | 0.75 |
| CG10140 (GeneID 39511) | DRSC09704 | 0.21 | -0.47 | 0.09 | 0.3 |
| Obp47b + CG7741 | DRSC06330 | -0.1 | 0.18 | -0.18 | 0.95 |

The listing, repeating the preview:
| gene | amplicon | replicate 1, z-score of dpERK with insulin | replicate 2, z-score of dpERK with insulin | replicate 1, z-score of dpERK under basal conditions | replicate 1, z-score of ERK-YFP with insulin |
| --- | --- | --- | --- | --- | --- |
| Hakai (GeneID 35256) | DRSC02031 | -0.34 | 0.4 | 0.94 | 0.75 |
| CG10140 (GeneID 39511) | DRSC09704 | 0.21 | -0.47 | 0.09 | 0.3 |
| Obp47b + CG7741 | DRSC06330 | -0.1 | 0.18 | -0.18 | 0.95 |
| CG17841 (GeneID 31965) | DRSC17737 | -0.96 | -1.12 | 0.48 | 0.81 |
| CG6028 (GeneID 42589) | DRSC15951 | 0.19 | 0.05 | 1.39 | 0.13 |
| l(1)G0320 (GeneID 326234) | DRSC18255 | 0.11 | 0.18 | -0.01 | 0.44 |
| Caf1-55 (GeneID 41836) | DRSC16596 | -2.4 | -3.03 | -3.17 | -1.08 |
| pbl (GeneID 38879) | DRSC11381 | -0.94 | -1.28 | 0.73 | -0.67 |
| CG10874 (GeneID 33394) | DRSC00297 | -0.78 | -1.13 | -1.73 | 0.03 |
| Cnx14D (GeneID 32620) | DRSC20214 | -0.08 | 0.14 | 0.45 | 0.71 |
| RpL41 (GeneID 251466) | DRSC22958 | 0.65 | -0.31 | -0.85 | -1.59 |
| CG42521 (GeneID 8674012) | DRSC10154 | 0.12 | 1.15 | -0.21 | 0.44 |
| Nt5b (GeneID 32822) | DRSC19976 | -0.57 | 0.04 | -1.05 | -0.02 |
| Nt5b (GeneID 32822) | DRSC19977 | 0.33 | 0.77 | 0.06 | 0.23 |
| Nt5b (GeneID 32822) | DRSC19978 | -0.28 | -0.15 | 0.88 | 0.6 |
| Nt5b (GeneID 32822) | DRSC22588 | 0.33 | 0.16 | 0.05 | -1.45 |
| Ugt36D1 (GeneID 35138) | DRSC02600 | -1.2 | -0.37 | -0.13 | 0.38 |
| CG5555 (GeneID 42302) | DRSC15834 | -0.54 | -0.92 | 1.87 | -0.78 |
| TrpA1 (GeneID 39015) | DRSC10544 | 0.68 | 0.82 | -0.51 | 0.02 |
| Oatp58Da (GeneID 37543) | DRSC04365 | 1.55 | -0.11 | -0.69 | -1.12 |
| Idgf3 (GeneID 34981) | DRSC03351 | 0.7 | 0.1 | -0.03 | 0.5 |
| CG6659 (GeneID 32854) | DRSC20003 | 0.27 | 0.46 | -0.66 | 0.63 |
| CG33792 (GeneID 3772111) | DRSC05355 | 0.58 | 0.18 | 0.04 | 0.1 |
| Lcp2 (GeneID 35818) | DRSC07456 | -0.22 | -0.39 | -0.68 | 0.05 |
| AANATL2 (GeneID 33874) | DRSC03227 | -0.96 | -0.7 | 0.16 | 1.37 |
| CG2698 (GeneID 40945) | DRSC15447 | 0.04 | -1.37 | -0.18 | -1.2 |
| CG17633 (GeneID 34297) | DRSC02631 | 0.28 | 0.48 | -0.17 | -0.56 |
| Osi22 (GeneID 41632) | DRSC16442 | -0.14 | 0.01 | 0.86 | 0.2 |
| PIG-H + Kmn2 | DRSC12653 | -0.29 | -1.82 | -2.1 | -0.58 |
| CG32816 (GeneID 318225) | DRSC17337 | -0.31 | 0.11 | -0.83 | 0.66 |
| neo (GeneID 43523) | DRSC16316 | -0.06 | -0.38 | 0.3 | -1.04 |
| Cyp9h1 (GeneID 36412) | DRSC07391 | 0.11 | 0.87 | 0.62 | -0.88 |
| CG1233 (GeneID 38063) | DRSC08269 | 1.02 | -0.34 | 0.16 | -1.17 |
| CG6567 + CG42394 | DRSC22241 | 0.15 | 0.98 | -1 | -0.3 |
| CG16734 (GeneID 41100) | DRSC15143 | -0.03 | -0.33 | 0.62 | -0.23 |
| Rrp1 (GeneID 33500) | DRSC00784 | -0.48 | -0.47 | -1.97 | 0.09 |
| inaC (GeneID 36897) | DRSC07632 | -0.87 | -0.44 | 0.41 | 0.31 |
| Oseg1 (GeneID 38957) | DRSC10776 | 0.06 | -0.96 | 0.12 | 0.05 |
| Ubr1 (GeneID 32687) | DRSC20148 | -1.83 | -2.4 | -1.66 | 3.2 |
